pIC50: −log10 of the molar value. Read-outs that look alike come from different tables or passages of the source. The match of structure and compound is tentative.

Chains of the proteins cited; added tags and fusions are not shown.
UniProt Q92918, whole entry: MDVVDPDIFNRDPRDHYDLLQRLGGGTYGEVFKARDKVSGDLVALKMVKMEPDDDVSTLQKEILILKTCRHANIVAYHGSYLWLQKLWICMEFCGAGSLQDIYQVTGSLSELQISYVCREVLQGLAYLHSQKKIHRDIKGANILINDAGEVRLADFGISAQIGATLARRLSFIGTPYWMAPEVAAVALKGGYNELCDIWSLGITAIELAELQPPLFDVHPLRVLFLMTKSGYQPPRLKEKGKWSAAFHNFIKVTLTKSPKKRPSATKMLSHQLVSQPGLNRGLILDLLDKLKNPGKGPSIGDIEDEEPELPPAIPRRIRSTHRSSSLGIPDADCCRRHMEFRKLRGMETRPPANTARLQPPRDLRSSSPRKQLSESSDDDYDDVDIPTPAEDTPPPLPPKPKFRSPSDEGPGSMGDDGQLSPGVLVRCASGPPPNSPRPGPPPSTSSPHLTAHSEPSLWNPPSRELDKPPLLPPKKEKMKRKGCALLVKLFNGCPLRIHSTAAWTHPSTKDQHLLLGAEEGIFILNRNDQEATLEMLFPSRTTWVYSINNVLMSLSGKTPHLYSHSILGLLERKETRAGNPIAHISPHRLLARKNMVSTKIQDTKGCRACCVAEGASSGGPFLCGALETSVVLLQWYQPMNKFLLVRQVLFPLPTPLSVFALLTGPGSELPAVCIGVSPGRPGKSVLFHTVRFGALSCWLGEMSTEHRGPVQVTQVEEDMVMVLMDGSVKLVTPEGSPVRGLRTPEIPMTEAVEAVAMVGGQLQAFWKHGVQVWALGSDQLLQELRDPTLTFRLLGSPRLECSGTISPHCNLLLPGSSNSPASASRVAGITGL

The values below come from patent US12649751B2 (Arcus Biosciences, Inc., priority 2022, dated 2026).

For one assay, the target named is HPK1 (Homo sapiens, UniProt Q92918). In words: HPK1 Biochemical Assay (ADP-Glo luminescence; low ATP 10 μM or high ATP 200 μM). Here is the method: Dose-response assays were performed in Corning® Low Volume 384-well assay plates containing 100 nL of 22 serial 2-fold compound dilutions. Wells containing DMSO alone were used as negative control. A kinase mixture (5 μL) containing 2 nM HPK1 (or 5 nM for high ATP assay) in assay buffer (50 mM Hepes pH 7.4, 10 mM MgCl2, 0.01% Brij-15, 0.01% bovine serum albumin, and 1 mM dithiothreitol) was added to the assay plates and incubated at 25° C. for 1 hour. Wells without HPK1 were used as positive control. A […] of 10 μM ATP (or 200 μM for high ATP) and 0.2 μg/μL […] was then added to the wells, resulting in a 10 μL total reaction volume. Following incubation of the assay plates at 25° C. for 1 hour, 10 μL of ADP-Glo reagent was added to the wells and the plates were incubated at 25° C. for a further 40 minutes (or 1 hour for high ATP assay). Finally, 20 μL of Kinase Detection Reagent was added, and the plates were incubated for another 30 minutes at 25° C. An Envision plate reader was then used to detect the luminescence signals. IC50 values were determined by fitting the data to a standard 4-parameter logistic equation. The results are summarized in the Biochemical Potency columns of Tables 4 and 5 below (Biochemical Potency (high ATP); Biochemical Potency (low ATP)).
Background: In ADP-Glo the light output rises with the ADP produced.

Assay [1] concerns p-SLP-76 (Ser376) in Jurkat cells. In words: pSLP76 Cellular Assay (AlphaLISA SureFire Ultra p-SLP-76 (Ser376), anti-CD3 activated Jurkat cells). The note with it: read-out: Cellular Potency. Here is the method: pSLP76 cellular assay was performed using Jurkat cells and the AlphaLISA SureFire Ultra p-SLP-76 (Ser376) Assay Kit (PerkinElmer). Dose-response assays were performed in Greiner® Low Volume 384-well assay plates containing 200 nL of 22 serial 2-fold compound dilutions using Bravo and Echo. Jurkat cells were grown in RPMI-1640 supplemented with 10% FBS and PSG. The day prior to the assay, the cells were collected, and serum starved overnight in Opti-MEM. The day of the assay, the cells were collected and resuspended in HBSS. 100,000 cells/well were added to the compound plates and after a short spin, the plates were incubated at 37° C. for 1 h. The cells were activated by adding 10 μL of 0.025 mg/ml anti-CD3. Plates were then incubated at 37° C. for 45 min. Stimulation was terminated by adding […], followed by a brief centrifugation and 60 min of shaking at 300 rpm. Cell lysates (10 μL) were transferred to 384-well White Opti-plates and the samples were processed according to the manufacturer's directions. The fluorescence signal from pSLP76 was measured at 570 nm using Envision plate reader. IC50 values were determined by fitting the data to a standard 4-parameter logistic equation. The results are summarized in the Cellular Potency columns in Tables 4 and 5 below (Cellular Potency).

Consider `Cc1cccnc1-c1nc2cnc(Nc3cccc(N4CCC5NCCC54)n3)cc2s1` (stereo not shown), for which the pIC50 at HPK1 (read-out: Biochemical Potency (low ATP), 2 nM HPK1, 10 μM ATP) was greater than 7.00; in assay [1] (Jurkat cells, anti-CD3 stimulation, pSLP76), less than 5.30.

As to `Cc1cc(Nc2cc3nc(-c4cccc(C(=O)N(C)C)c4)sc3cn2)nc(N2C[C@@H]3C[C@H]2CN3CC2CCOCC2)n1`, the pIC50 on HPK1 (read-out: Biochemical Potency (high ATP), HPK1 ADP-Glo assay, high ATP (200 μM ATP, 5 nM HPK1)) was greater than 7.00; in assay [1] (pSLP76 (Ser376) AlphaLISA, anti-CD3 activated Jurkat cells) it was 5.30 to 6.00.
